Source: the supplement of paper PMC12823440, “Inhibitors supercharge kinase turnover through native proteolytic circuits” (Nature, 2025)
The list shows a part of the results. The calls rarely recur for the same compound in another form.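 Kinases, fused to nanoluciferase, were expressed in K562 cells; luminescence was measured every 4 h from 2 to 18 h as percent of control (DMSO = 100%, positive control = 0%). A time point is decreased if signal falls significantly (2 sigma). Hits were called by the authors by a rule that is not shown; the count of time points alone does not decide it.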

The chains behind the UniProt entries cited, without tags or fusion partners. Where a name states a change or a piece, a line headed by the entry shows the natural chain unless it says otherwise.
UniProt P00519, whole entry: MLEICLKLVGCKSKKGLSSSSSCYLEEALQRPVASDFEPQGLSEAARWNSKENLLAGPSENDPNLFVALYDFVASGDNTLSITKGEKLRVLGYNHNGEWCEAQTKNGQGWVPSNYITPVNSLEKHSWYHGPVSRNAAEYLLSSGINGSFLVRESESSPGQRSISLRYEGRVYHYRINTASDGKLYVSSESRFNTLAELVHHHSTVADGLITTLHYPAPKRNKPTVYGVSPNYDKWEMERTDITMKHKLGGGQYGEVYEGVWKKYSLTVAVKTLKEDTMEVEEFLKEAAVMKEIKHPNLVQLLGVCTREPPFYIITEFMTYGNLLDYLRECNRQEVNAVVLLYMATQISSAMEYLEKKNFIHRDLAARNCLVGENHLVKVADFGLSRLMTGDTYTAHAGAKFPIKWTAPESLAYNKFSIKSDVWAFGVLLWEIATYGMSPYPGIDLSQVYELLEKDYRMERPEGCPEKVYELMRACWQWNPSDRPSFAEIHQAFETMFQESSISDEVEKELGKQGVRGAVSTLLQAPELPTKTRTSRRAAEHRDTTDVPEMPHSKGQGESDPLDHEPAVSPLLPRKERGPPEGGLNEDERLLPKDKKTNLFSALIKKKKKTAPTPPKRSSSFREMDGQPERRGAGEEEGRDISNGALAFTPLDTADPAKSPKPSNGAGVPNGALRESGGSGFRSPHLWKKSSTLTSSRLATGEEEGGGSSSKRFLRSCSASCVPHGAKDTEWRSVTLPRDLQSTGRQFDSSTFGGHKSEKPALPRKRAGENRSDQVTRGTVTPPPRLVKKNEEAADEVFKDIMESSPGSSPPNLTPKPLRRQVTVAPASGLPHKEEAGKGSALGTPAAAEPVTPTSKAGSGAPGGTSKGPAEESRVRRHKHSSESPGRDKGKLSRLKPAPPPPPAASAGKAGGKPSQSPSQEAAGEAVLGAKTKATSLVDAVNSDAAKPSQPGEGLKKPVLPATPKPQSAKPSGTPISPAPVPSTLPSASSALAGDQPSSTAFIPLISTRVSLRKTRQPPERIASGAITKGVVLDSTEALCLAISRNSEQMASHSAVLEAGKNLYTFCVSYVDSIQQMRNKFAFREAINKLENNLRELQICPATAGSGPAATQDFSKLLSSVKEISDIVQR
UniProt P31749: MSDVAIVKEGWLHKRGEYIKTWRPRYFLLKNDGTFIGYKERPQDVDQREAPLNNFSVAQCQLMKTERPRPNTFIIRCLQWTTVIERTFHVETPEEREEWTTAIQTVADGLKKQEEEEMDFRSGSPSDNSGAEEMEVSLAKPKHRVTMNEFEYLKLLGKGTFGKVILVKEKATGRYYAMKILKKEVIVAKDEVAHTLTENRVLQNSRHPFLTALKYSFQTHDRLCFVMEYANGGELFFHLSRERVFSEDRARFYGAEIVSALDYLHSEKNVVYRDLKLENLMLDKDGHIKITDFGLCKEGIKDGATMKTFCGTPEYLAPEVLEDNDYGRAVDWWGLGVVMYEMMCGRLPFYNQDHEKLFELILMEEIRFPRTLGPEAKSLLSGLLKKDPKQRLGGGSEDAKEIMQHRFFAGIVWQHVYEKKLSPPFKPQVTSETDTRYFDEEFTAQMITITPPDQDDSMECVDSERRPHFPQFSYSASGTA
UniProt P10398: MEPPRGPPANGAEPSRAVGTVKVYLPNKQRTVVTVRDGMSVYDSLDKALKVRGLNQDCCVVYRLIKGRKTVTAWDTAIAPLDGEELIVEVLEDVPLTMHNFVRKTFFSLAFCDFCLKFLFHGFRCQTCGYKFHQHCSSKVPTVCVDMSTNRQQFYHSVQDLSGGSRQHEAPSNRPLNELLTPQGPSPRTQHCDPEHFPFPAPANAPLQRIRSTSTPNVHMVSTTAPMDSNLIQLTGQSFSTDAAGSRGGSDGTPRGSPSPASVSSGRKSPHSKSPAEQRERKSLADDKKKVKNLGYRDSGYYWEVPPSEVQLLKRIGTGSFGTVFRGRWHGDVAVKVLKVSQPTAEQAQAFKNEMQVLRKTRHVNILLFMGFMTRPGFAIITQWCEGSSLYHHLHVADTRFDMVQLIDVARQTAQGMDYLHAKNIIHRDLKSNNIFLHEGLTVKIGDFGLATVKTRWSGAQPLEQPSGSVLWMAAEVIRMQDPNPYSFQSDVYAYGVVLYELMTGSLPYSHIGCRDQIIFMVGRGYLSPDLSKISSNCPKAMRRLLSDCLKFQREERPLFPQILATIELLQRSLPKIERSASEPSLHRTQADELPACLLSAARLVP
UniProt O14965: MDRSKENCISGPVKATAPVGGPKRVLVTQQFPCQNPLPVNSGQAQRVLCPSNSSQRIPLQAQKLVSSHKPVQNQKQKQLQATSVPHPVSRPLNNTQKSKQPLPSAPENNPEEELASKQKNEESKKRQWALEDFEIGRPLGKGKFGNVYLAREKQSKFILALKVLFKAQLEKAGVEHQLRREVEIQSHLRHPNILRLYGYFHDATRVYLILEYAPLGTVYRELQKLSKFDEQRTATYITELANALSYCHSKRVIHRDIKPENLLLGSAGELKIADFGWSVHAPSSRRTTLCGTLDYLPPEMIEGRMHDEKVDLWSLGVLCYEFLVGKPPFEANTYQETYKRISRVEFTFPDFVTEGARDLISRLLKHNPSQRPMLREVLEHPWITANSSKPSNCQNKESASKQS
UniProt Q96GD4, whole entry: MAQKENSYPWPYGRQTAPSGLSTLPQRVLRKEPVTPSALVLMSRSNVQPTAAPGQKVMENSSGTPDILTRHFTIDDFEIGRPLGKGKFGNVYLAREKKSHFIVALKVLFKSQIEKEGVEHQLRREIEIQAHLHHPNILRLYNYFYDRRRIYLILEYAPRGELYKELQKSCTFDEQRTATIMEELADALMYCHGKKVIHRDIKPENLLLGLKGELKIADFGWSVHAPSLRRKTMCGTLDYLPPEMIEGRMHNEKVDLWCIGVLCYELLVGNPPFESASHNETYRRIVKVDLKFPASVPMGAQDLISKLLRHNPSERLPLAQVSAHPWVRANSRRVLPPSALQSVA
UniProt Q9UQB9: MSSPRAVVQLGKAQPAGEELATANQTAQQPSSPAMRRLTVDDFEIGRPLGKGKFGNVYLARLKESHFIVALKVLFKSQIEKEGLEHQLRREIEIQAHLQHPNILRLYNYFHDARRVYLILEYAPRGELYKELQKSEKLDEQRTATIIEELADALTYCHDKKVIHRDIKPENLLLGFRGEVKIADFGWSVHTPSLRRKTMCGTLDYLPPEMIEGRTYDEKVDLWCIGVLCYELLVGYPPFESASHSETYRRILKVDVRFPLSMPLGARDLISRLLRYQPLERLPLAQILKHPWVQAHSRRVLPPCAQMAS
UniProt P51451: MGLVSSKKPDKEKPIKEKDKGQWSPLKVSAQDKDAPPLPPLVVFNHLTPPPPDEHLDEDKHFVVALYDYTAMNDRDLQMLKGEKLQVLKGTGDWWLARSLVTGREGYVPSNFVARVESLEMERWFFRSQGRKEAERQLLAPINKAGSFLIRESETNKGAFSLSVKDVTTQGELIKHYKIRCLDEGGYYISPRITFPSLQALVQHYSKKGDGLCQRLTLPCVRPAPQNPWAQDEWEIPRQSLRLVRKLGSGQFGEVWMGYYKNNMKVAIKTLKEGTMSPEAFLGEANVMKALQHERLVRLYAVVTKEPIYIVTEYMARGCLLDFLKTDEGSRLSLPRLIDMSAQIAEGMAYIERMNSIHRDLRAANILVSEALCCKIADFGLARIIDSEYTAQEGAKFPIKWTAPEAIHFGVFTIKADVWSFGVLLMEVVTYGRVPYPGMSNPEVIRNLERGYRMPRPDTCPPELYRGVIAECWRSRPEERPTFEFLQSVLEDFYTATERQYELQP
UniProt Q06187: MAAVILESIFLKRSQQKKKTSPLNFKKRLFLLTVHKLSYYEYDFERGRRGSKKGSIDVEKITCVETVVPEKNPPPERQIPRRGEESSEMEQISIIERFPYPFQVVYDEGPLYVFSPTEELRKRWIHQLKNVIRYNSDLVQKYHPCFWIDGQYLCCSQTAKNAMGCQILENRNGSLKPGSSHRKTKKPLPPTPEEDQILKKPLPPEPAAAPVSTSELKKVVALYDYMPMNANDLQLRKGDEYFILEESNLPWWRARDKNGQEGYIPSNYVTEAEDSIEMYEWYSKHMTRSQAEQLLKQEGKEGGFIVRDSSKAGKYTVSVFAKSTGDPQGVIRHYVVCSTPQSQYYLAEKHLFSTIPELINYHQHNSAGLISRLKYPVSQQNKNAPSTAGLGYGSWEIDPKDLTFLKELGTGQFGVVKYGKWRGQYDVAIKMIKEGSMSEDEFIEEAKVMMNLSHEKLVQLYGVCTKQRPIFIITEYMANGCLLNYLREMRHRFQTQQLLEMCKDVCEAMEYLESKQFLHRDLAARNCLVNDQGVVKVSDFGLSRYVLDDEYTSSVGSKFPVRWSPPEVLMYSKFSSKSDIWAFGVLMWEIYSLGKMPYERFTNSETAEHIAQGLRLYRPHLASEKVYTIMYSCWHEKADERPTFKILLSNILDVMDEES
UniProt Q13555: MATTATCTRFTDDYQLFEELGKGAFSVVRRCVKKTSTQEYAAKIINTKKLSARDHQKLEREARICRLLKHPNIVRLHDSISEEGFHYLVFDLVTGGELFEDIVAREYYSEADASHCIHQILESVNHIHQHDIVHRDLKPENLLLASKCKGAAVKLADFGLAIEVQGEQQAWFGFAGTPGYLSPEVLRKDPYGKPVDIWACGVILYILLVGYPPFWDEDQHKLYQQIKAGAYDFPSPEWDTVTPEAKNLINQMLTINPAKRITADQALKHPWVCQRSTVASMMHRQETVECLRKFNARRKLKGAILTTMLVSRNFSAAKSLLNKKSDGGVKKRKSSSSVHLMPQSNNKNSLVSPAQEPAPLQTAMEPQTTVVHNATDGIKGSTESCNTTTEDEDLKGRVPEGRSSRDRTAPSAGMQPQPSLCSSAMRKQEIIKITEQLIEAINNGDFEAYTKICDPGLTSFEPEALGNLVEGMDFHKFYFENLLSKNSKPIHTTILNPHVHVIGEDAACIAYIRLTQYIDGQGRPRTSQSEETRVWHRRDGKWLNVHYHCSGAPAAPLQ
UniProt Q15131: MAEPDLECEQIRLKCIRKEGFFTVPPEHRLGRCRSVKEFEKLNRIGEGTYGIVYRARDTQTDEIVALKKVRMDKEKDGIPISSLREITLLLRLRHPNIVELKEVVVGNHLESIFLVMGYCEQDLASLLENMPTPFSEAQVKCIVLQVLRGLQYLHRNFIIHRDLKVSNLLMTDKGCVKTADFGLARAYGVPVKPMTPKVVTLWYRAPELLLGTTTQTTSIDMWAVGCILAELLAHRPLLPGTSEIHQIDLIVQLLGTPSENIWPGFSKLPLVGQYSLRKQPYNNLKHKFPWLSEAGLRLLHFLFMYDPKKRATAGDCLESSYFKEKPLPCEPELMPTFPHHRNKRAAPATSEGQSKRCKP
UniProt Q00526: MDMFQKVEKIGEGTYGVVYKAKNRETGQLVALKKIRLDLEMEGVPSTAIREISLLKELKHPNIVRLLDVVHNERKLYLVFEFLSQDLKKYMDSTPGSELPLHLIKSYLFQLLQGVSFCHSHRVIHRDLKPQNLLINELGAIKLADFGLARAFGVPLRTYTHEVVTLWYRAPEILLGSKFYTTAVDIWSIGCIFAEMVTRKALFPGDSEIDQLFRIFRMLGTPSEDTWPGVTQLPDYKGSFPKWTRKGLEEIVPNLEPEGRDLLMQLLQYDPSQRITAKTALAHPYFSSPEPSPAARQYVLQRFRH
UniProt P11802: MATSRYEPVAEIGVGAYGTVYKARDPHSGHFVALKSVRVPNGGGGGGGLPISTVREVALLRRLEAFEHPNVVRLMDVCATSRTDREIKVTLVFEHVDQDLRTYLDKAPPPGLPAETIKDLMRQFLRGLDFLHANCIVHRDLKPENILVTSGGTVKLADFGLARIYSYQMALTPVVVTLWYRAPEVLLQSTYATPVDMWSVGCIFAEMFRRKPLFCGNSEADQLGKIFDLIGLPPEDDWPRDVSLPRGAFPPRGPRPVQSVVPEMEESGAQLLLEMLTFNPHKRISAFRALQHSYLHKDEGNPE
UniProt Q00535, whole entry, looked up: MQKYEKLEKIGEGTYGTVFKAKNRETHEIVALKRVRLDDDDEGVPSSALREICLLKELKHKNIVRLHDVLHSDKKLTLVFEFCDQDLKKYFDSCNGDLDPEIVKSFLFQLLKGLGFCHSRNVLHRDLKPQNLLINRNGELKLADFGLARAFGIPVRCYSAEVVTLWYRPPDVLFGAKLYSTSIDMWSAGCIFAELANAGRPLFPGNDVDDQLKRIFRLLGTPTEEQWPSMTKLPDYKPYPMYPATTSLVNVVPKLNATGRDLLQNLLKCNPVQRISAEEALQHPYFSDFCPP
UniProt Q00534, whole entry: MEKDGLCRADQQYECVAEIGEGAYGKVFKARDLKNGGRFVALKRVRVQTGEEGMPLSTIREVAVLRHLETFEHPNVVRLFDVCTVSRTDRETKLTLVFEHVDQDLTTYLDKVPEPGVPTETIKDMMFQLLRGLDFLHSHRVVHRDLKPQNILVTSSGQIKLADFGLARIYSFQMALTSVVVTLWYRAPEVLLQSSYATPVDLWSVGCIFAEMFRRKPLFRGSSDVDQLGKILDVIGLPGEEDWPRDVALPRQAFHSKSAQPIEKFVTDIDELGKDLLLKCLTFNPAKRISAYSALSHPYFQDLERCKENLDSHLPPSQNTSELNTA

Legend:
Assay in all cases: kinase-Nluc reporter destabilization hit call (1 = scored as downregulated) (binary); higher = compound decreases kinase abundance
Conditions in all cases: K562, 2-18 h
[1] = molecular target: ABL1 (UniProt P00519)
[2] = molecular target: AKT1 (UniProt P31749)
[3] = molecular target: ALK (UniProt Q9UM73)
[4] = molecular target: ARAF (UniProt P10398)
[5] = molecular target: AURKA (UniProt O14965)
[6] = molecular target: AURKB (UniProt Q96GD4)
[7] = molecular target: AURKC (UniProt Q9UQB9)
[8] = molecular target: BLK (UniProt P51451)
[9] = molecular target: BMX (UniProt P51813)
[10] = molecular target: BRAF (UniProt P15056)
[11] = tested on: BRAF_V600E
[12] = molecular target: BTK (UniProt Q06187)
[13] = molecular target: CAMK2A (UniProt Q9UQM7)
[14] = molecular target: CAMK2G (UniProt Q13555)
[15] = molecular target: CDK10 (UniProt Q15131)
[16] = molecular target: CDK2 (UniProt P24941)
[17] = molecular target: CDK3 (UniProt Q00526)
[18] = molecular target: CDK4 (UniProt P11802)
[19] = molecular target: CDK5 (UniProt Q00535)
[20] = molecular target: CDK6 (UniProt Q00534)

Row | SMILES | kinase-Nluc reporter destabilization hit call ([1]; 10 µM) | kinase-Nluc reporter destabilization hit call ([2]; 10 µM) | kinase-Nluc reporter destabilization hit call ([3]; 10 µM) | kinase-Nluc reporter destabilization hit call ([4]; 10 µM) | kinase-Nluc reporter destabilization hit call ([5]; 10 µM) | kinase-Nluc reporter destabilization hit call ([6]; 10 µM) | kinase-Nluc reporter destabilization hit call ([7]; 10 µM) | kinase-Nluc reporter destabilization hit call ([8]; 10 µM) | kinase-Nluc reporter destabilization hit call ([9]; 10 µM) | kinase-Nluc reporter destabilization hit call ([10]; 10 µM) | kinase-Nluc reporter destabilization hit call ([11]; 10 µM) | kinase-Nluc reporter destabilization hit call ([12]; 10 µM) | kinase-Nluc reporter destabilization hit call ([13]; 10 µM) | kinase-Nluc reporter destabilization hit call ([14]; 10 µM) | kinase-Nluc reporter destabilization hit call ([15]; 10 µM) | kinase-Nluc reporter destabilization hit call ([16]; 10 µM) | kinase-Nluc reporter destabilization hit call ([17]; 10 µM) | kinase-Nluc reporter destabilization hit call ([18]; 10 µM) | kinase-Nluc reporter destabilization hit call ([19]; 10 µM) | kinase-Nluc reporter destabilization hit call ([20]; 10 µM) | kinase-Nluc reporter destabilization hit call ([1]; 2.5 µM) | kinase-Nluc reporter destabilization hit call ([2]; 2.5 µM) | kinase-Nluc reporter destabilization hit call ([3]; 2.5 µM) | kinase-Nluc reporter destabilization hit call ([4]; 2.5 µM) | kinase-Nluc reporter destabilization hit call ([5]; 2.5 µM) | kinase-Nluc reporter destabilization hit call ([6]; 2.5 µM) | kinase-Nluc reporter destabilization hit call ([7]; 2.5 µM) | kinase-Nluc reporter destabilization hit call ([8]; 2.5 µM) | kinase-Nluc reporter destabilization hit call ([9]; 2.5 µM) | kinase-Nluc reporter destabilization hit call ([10]; 2.5 µM) | kinase-Nluc reporter destabilization hit call ([11]; 2.5 µM) | kinase-Nluc reporter destabilization hit call ([12]; 2.5 µM) | kinase-Nluc reporter destabilization hit call ([13]; 2.5 µM) | kinase-Nluc reporter destabilization hit call ([14]; 2.5 µM) | kinase-Nluc reporter destabilization hit call ([15]; 2.5 µM) | kinase-Nluc reporter destabilization hit call ([16]; 2.5 µM) | kinase-Nluc reporter destabilization hit call ([17]; 2.5 µM) | kinase-Nluc reporter destabilization hit call ([18]; 2.5 µM) | kinase-Nluc reporter destabilization hit call ([19]; 2.5 µM) | kinase-Nluc reporter destabilization hit call ([20]; 2.5 µM)
1 | FC(F)(F)c1ccc(CNc2ccc(Cc3c[nH]c4ncc(Cl)cc34)cn2)cn1 [Pexidartinib] | inactive: 0 | inactive: 0 | inactive: 0 | inactive: 0 | inactive: 0 | inactive: 0 | inactive: 0 | inactive: 0 | inactive: 0 | inactive: 0 | inactive: 0 | inactive: 0 | inactive: 0 | inactive: 0 | inactive: 0 | inactive: 0 | inactive: 0 | inactive: 0 | inactive: 0 | inactive: 0 | – | – | – | – | – | – | – | – | – | – | – | – | – | – | – | – | – | – | – | –
2 | CCCC(=O)Nc1ncnc2c1ncn2[C@@H]1O[C@@H]2COP(=O)(O)O[C@H]2[C@H]1OC(=O)CCC [Bucladesine (sodium)] | inactive: 0 | inactive: 0 | inactive: 0 | inactive: 0 | inactive: 0 | inactive: 0 | inactive: 0 | inactive: 0 | inactive: 0 | inactive: 0 | inactive: 0 | inactive: 0 | inactive: 0 | inactive: 0 | inactive: 0 | inactive: 0 | inactive: 0 | inactive: 0 | inactive: 0 | inactive: 0 | – | – | – | – | – | – | – | – | – | – | – | – | – | – | – | – | – | – | – | –
3 | c1cc(-c2cnn3cc(-c4ccc(OCCN5CCCCC5)cc4)cnc23)ccn1 [Dorsomorphin] | – | – | – | – | – | – | – | – | – | – | – | – | – | – | – | – | – | – | – | – | inactive: 0 | inactive: 0 | inactive: 0 | inactive: 0 | inactive: 0 | inactive: 0 | inactive: 0 | inactive: 0 | inactive: 0 | inactive: 0 | inactive: 0 | inactive: 0 | inactive: 0 | inactive: 0 | inactive: 0 | inactive: 0 | inactive: 0 | inactive: 0 | inactive: 0 | inactive: 0
4 | CN(C)C/C=C/C(=O)Nc1cc2c(Nc3ccc(F)c(Cl)c3)ncnc2cc1O[C@H]1CCOC1 [Afatinib] | inactive: 0 | inactive: 0 | inactive: 0 | inactive: 0 | inactive: 0 | inactive: 0 | inactive: 0 | inactive: 0 | inactive: 0 | inactive: 0 | inactive: 0 | inactive: 0 | inactive: 0 | inactive: 0 | active: 1 | inactive: 0 | inactive: 0 | inactive: 0 | inactive: 0 | inactive: 0 | – | – | – | – | – | – | – | – | – | – | – | – | – | – | – | – | – | – | – | –
5 | CC(=O)Nc1cccc(-n2c(=O)n(C3CC3)c(=O)c3c(Nc4ccc(I)cc4F)n(C)c(=O)c(C)c32)c1 [Trametinib (DMSO solvate)] | inactive: 0 | inactive: 0 | inactive: 0 | inactive: 0 | inactive: 0 | inactive: 0 | inactive: 0 | inactive: 0 | inactive: 0 | inactive: 0 | inactive: 0 | inactive: 0 | inactive: 0 | inactive: 0 | inactive: 0 | inactive: 0 | inactive: 0 | inactive: 0 | inactive: 0 | inactive: 0 | – | – | – | – | – | – | – | – | – | – | – | – | – | – | – | – | – | – | – | –
6 | CN(C)C(=N)NC(=N)N [Metformin] | inactive: 0 | inactive: 0 | inactive: 0 | inactive: 0 | inactive: 0 | inactive: 0 | inactive: 0 | inactive: 0 | inactive: 0 | inactive: 0 | inactive: 0 | inactive: 0 | inactive: 0 | inactive: 0 | inactive: 0 | inactive: 0 | inactive: 0 | inactive: 0 | inactive: 0 | inactive: 0 | – | – | – | – | – | – | – | – | – | – | – | – | – | – | – | – | – | – | – | –
